The list shows a part of the results. Values are worked out from sequencing counts and are noisy.
T1: Homer1 EVH1 domain
T1 chain: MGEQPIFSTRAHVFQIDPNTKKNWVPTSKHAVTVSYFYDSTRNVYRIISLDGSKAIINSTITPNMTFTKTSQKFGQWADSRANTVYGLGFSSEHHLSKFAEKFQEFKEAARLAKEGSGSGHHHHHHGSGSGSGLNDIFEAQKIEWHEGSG

B1: unnamed (peptide)
chain: LVLLSRFDRLLFQSYLFILGIYTITLCSLWALWGGE
B2: unnamed (peptide)
chain: SLEMLDAAKNKMRVKISYLMIALTVVGCIFMVIEGK
B3: unnamed (peptide)
chain: ELSVTQEHIFSKAFFYFVCLDILLYSGFVYRTFEEC
B4: unnamed (peptide)
chain: VAAAVPALLALILIFMETQITALIVSQKARRLLKGS
B5: unnamed (peptide)
chain: KTISFNNCIVQLFFFILLGVTEFYLLAAMSYDRYVA
B6: unnamed (peptide)
chain: QGFFRNKILVIAIVFQVCIGCFLCYCPGMPNIFNFM
B7: unnamed (peptide)
chain: KPHTSLSFLSASLCHFILISCLYVSAYLQSCKHIRR
B8: unnamed (peptide)
chain: LYPNIMTGHLYAKLVILCWVCGFLWFLIPIVLISQM
B9: unnamed (peptide)
chain: WGFILGFVLGAVSPAVVVPSMLLLQGGGYGVEKGVP
B10: unnamed (peptide)
chain: RGASSISQPSISLGHKTSYSPVTHKVNAAKASRRLL
B11: unnamed (peptide)
chain: RNIQAGNYTAHQINIGYYLTLLFLYGVALTERGKKE
B12: unnamed (peptide)
chain: RVCENCMEMDVMSVATIVIVDICITGGLLLLVYYWS
B13: unnamed (peptide)
chain: MAAALQVLPRLARAPLHPLLWRGSVARLASSMALAE
B14: unnamed (peptide)
chain: RIAYILPANESFGPLQISLGRTVKDIFKFMVLFIMV
B15: unnamed (peptide)
chain: FLVSGLFSIISSIPFFFLPQTPNRPQKERKASLSLH
B16: unnamed (peptide)
chain: TQDKSIGRPCRSLLSADWLRLGKRQKRPASRAGAAR
B17: unnamed (peptide)
chain: MLLVPFSLILSSYGLILAAVLHMRSTEARKKAFATC
B18: unnamed (peptide)
chain: DKNIISYYFCATQLAFFLVFIGSELFILSAMSYDLY
B19: unnamed (peptide)
chain: LSWIFAWSLIIPFSCFPKHLPGTAEIQAGKTSQAHQ
B20: unnamed (peptide)
chain: ISNFLLFISVVSFLTYSIWASSCKNKAECNELHPSV
B21: unnamed (peptide)
chain: AIFWTTISYLAISATIGSCVVRDASGVPNDTVTPGW
B22: unnamed (peptide)
chain: LCVVMVCILLYTTYPLLKESALILLQTVPKQIDIRN
B23: unnamed (peptide)
chain: CIGANLGHCAPASSAGSLAAGPLLLALALYPLSVLF
B24: unnamed (peptide)
chain: KTCSRPIRIGLSRKARIKQLHPYLKQMCYGNLKENF
B25: unnamed (peptide)
chain: CSIVMLLFLCSFSWLIFIFLQLETAKEPCMAKFGPL
B26: unnamed (peptide)
chain: NFNEAKFIGFTMYTTCIIWLALLPIFYVTSSDYRVH
B27: unnamed (peptide)
chain: MTQPVPRLSVPAALALGSAALGAAFATGLFLGRRCP
B28: unnamed (peptide)
chain: PSTSFLEKFKHISANHTLGFILFSWVLNMFITNNLL
B29: unnamed (peptide)
chain: TLYGPGAVIDGVNSASRALACLWLSGTLLAHFFIKF
B30: unnamed (peptide)
chain: MFLSTYLVTIIGNALIILAIITDSHLHTPMYFFLFN
B31: unnamed (peptide)
chain: GLDSIMGNKDLWPLLLSIIFIPALLQCICCRSARTR
B32: unnamed (peptide)
chain: PQTGAGEAPPAAEVSSSFVILCVCSLIILIVLIANC
B33: unnamed (peptide)
chain: SKYLSHDVVVMTVKLCILFAVLLTVPLIHFPARKAV
B34: unnamed (peptide)
chain: FLCNFSAADGGLRASVTLLGAGLLLSLLPALLRFGP
B35: unnamed (peptide)
chain: AMAYDRYVAICNPLLYMVTMSPQVCFLLLLGVYGMG
B36: unnamed (peptide)
chain: KNPNLPLAAIIGGAVALVTIALLALVCWYVHRNGSL
B37: unnamed (peptide)
chain: RKVDREDKLDIPMFFGFVGLFNLLLLWPGFFLLHYT
B38: unnamed (peptide)
chain: MLPQQVGFVCAVLALVCCASGLFGSLGHKTASASKR
B39: unnamed (peptide)
chain: AGGRIWERLFHGPTSSLIPRRSVKLKMPTAFVSGPR
B40: unnamed (peptide)
chain: TANWRMLLRILPQSFGFIVPLLIMLFCYGFTLRTLF
B41: unnamed (peptide)
chain: MLARALLLCAVLALSHTANPCCSHPCQNRGVCMSVG
B42: unnamed (peptide)
chain: HLPSVLAMIHVKRCTPIPALLFTCISTLLMLVTSDI
B43: unnamed (peptide)
chain: NMFSICSAVMVMALLAVVGLFTVVRHDAELRVPSPI
B44: unnamed (peptide)
chain: FSTIPEHTKLASSCLLILEFVMIVVFGLEFIIRIWS

Molecular target: T1, Homer1 EVH1 domain
Assay: enrichment score (AUC of log2 frequency ratio across FACS sorting rounds) (log2 AUC); higher = stronger enrichment for Homer1 EVH1 binding

Question: For B1, which enrichment score is on record?
Answer: The enrichment score was 2.43.

Question: B2 was tested. Which enrichment score did it give?
Answer: The enrichment score was 3.7.

Question: Which enrichment score does the source give for B3 here?
Answer: Its enrichment score is -0.162.

Question: Which enrichment score does the source give for B4 here?
Answer: Its enrichment score is 2.54.

Question: How did the enrichment score turn out when B5 was run?
Answer: The enrichment score was 1.9.

Question: With B6 as the binder, how does the enrichment score read?
Answer: Its enrichment score is -2.02.

Question: Which enrichment score does the source give for B7 here?
Answer: The enrichment score was 2.03.

Question: B8 was tested. Which enrichment score did it give?
Answer: Its enrichment score is 3.46.

Question: How did the enrichment score turn out when B9 was run?
Answer: The enrichment score was 0.443.

Question: Which enrichment score does the source give for B10 here?
Answer: The enrichment score was 1.

Question: With B11 as the binder, how does the enrichment score read?
Answer: Its enrichment score is 2.12.

Question: How did the enrichment score turn out when B12 was run?
Answer: Its enrichment score is -2.77.

Question: For B13, which enrichment score is on record?
Answer: The enrichment score was 1.82.

Question: Which enrichment score does the source give for B14 here?
Answer: Its enrichment score is -0.148.

Question: For B15, which enrichment score is on record?
Answer: The enrichment score was -0.722.

Question: Which enrichment score does the source give for B16 here?
Answer: The enrichment score was 0.654.

Question: B17 was tested. Which enrichment score did it give?
Answer: The enrichment score was 3.6.

Question: For B18, which enrichment score is on record?
Answer: The enrichment score was 1.28.

Question: With B19 as the binder, how does the enrichment score read?
Answer: Its enrichment score is -2.16.

Question: How did the enrichment score turn out when B20 was run?
Answer: Its enrichment score is 3.08.

Question: B21 was tested. Which enrichment score did it give?
Answer: Its enrichment score is 2.13.

Question: Which enrichment score does the source give for B22 here?
Answer: Its enrichment score is -0.0254.

Question: B23 was tested. Which enrichment score did it give?
Answer: Its enrichment score is 1.41.

Question: With B24 as the binder, how does the enrichment score read?
Answer: The enrichment score was 0.368.

Question: With B25 as the binder, how does the enrichment score read?
Answer: The enrichment score was 0.609.

Question: With B26 as the binder, how does the enrichment score read?
Answer: Its enrichment score is 4.43.

Question: For B27, which enrichment score is on record?
Answer: The enrichment score was 0.469.

Question: How did the enrichment score turn out when B28 was run?
Answer: Its enrichment score is 2.37.

Question: For B29, which enrichment score is on record?
Answer: The enrichment score was 0.415.

Question: Which enrichment score does the source give for B30 here?
Answer: Its enrichment score is -0.635.

Question: How did the enrichment score turn out when B31 was run?
Answer: Its enrichment score is 3.78.

Question: How did the enrichment score turn out when B32 was run?
Answer: The enrichment score was -0.404.

Question: For B33, which enrichment score is on record?
Answer: The enrichment score was 2.18.

Question: How did the enrichment score turn out when B34 was run?
Answer: Its enrichment score is -0.981.

Question: How did the enrichment score turn out when B35 was run?
Answer: The enrichment score was -2.58.

Question: With B36 as the binder, how does the enrichment score read?
Answer: The enrichment score was 0.628.

Question: How did the enrichment score turn out when B37 was run?
Answer: The enrichment score was 0.325.

Question: With B38 as the binder, how does the enrichment score read?
Answer: The enrichment score was 0.788.

Question: For B39, which enrichment score is on record?
Answer: The enrichment score was 0.201.

Question: Which enrichment score does the source give for B40 here?
Answer: Its enrichment score is -1.23.

Question: For B41, which enrichment score is on record?
Answer: The enrichment score was 0.818.

Question: Which enrichment score does the source give for B42 here?
Answer: The enrichment score was 3.97.

Question: With B43 as the binder, how does the enrichment score read?
Answer: Its enrichment score is 4.68.

Question: Which enrichment score does the source give for B44 here?
Answer: Its enrichment score is -0.871.

— the supplement of paper PMC11237882
